Laboratory results: US20210403514A1 (NATIONAL INSTITUTE FOR BIOTECHNOLOGY IN THE NEGEV, published 2021)
These are yes or no findings as the source states them, for the method shown. Some entries that bind do so weakly or less than the wild type.

Sequences of proteins named here, by UniProt entry; tags and fusion partners are left off. A change or cut given only in a name is not applied to a line headed by its entry. Residues count along the entry.
UniProt P06756: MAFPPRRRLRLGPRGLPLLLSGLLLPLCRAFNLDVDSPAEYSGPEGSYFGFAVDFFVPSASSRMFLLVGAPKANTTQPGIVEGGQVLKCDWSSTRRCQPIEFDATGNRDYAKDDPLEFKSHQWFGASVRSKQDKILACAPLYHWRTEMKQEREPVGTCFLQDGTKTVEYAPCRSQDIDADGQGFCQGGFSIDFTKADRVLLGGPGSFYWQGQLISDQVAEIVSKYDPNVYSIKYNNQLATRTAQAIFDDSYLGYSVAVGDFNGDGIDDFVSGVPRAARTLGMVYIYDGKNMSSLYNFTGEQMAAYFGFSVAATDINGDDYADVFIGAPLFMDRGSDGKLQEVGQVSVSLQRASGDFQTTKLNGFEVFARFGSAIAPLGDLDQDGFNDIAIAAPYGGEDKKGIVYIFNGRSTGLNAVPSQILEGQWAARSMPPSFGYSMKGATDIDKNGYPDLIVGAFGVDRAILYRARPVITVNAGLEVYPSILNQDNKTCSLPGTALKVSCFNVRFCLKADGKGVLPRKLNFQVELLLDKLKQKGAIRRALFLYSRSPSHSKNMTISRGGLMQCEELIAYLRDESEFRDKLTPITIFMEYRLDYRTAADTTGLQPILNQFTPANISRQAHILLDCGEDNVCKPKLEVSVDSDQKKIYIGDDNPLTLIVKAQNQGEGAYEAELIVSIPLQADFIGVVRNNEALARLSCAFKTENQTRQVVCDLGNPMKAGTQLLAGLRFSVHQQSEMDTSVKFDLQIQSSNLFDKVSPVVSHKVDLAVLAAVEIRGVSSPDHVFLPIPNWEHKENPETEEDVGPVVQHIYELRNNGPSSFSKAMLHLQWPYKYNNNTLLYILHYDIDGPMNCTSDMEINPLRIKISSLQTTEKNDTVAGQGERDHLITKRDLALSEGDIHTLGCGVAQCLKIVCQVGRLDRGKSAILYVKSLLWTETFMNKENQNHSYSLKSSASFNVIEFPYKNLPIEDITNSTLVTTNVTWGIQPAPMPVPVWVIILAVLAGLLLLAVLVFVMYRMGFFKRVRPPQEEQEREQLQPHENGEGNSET
UniProt P07333, residues 20-512: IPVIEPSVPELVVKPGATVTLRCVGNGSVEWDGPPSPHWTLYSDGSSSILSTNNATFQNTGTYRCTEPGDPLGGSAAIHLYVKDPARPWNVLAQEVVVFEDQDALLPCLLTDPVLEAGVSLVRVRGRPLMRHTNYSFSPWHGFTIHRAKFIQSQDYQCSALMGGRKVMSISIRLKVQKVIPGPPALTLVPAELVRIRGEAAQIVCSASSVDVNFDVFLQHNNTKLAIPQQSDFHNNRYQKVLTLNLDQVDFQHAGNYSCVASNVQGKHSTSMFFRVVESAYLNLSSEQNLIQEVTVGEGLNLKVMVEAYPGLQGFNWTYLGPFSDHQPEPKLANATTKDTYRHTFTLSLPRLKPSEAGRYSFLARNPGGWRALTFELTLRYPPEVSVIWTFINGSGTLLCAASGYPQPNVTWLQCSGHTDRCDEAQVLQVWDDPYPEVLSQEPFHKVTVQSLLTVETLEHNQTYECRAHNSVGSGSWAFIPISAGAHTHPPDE
UniProt P18084: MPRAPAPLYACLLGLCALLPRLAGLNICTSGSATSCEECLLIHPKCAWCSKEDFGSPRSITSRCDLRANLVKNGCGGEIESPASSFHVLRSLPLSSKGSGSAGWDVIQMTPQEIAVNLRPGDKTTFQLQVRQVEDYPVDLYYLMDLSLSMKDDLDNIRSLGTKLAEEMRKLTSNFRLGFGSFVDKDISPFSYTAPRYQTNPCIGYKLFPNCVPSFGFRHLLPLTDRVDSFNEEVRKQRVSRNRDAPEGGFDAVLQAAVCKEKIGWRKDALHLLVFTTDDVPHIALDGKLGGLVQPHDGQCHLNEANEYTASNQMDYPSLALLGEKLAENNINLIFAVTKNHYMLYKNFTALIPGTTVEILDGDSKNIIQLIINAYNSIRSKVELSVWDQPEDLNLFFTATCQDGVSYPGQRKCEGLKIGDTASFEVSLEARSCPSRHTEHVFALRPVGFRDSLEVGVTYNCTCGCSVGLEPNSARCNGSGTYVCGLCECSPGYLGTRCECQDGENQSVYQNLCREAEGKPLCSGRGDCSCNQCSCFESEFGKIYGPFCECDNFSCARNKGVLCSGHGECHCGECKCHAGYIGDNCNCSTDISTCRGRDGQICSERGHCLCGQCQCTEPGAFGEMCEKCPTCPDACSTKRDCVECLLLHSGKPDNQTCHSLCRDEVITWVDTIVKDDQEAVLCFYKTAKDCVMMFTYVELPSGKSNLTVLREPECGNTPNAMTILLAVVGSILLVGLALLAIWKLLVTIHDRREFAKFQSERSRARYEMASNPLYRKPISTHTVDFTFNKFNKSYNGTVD

Experiments:
[1] = biological target: T1, soluble human αvβ3 integrin (human, UniProt P06756 31-992; P05106 27-718); assay: yeast surface display flow cytometry
T1 construct: R&D Systems for yeast display; also called integrin αvβ3; recombinant αvβ3 integrin

[2] = biological target: soluble Fc conjugated human c-FMS (R&D systems) (human) (UniProt P07333); assay: yeast surface display flow cytometry
[3] = biological target: soluble Fc conjugated human c-FMS (R&D systems) (human) (UniProt P07333); assay: yeast surface display flow cytometry, 50 nM c-FMS
[4] = biological target: T1, soluble human αvβ3 integrin; assay: yeast surface display flow cytometry, 20 nM αvβ3 integrin
[5] = biological target: T1, soluble human αvβ3 integrin; assay: yeast surface display flow cytometry, integrins at 250 nM
[6] = biological target: soluble Fc conjugated human c-FMS (R&D systems) (human) (UniProt P07333); assay: yeast surface display, flow cytometry; 50 nM soluble c-FMS-Fc; values normalized to M-CSFM
[7] = biological target: T1, soluble human αvβ3 integrin; assay: yeast surface display, flow cytometry; 20 nM soluble αvβ3 integrin; values normalized to the lowest binder
[8] = biological target: T1, soluble human αvβ3 integrin; assay: SPR, integrin immobilised, variant at 1 µM as analyte
[9] = biological target: T1, soluble human αvβ3 integrin; assay: SPR (ProteOn XPR36); αvβ3 integrin immobilized, variant flowed at 1 µM
integrin αvβ5 (human) [10] = biological target: T2, integrin αvβ5 (human) (UniProt P06756+P18084); assay: SPR (ProteOn XPR36); αvβ5 integrin immobilized, variant flowed at 1 µM
integrin αvβ5 (human) [11] = biological target: T2, integrin αvβ5 (human); assay: SPR, integrin immobilised, variant at 1 µM as analyte; ranked best of the three on αvβ5
[12] = biological target: soluble human c-FMS receptor (extracellular domains, residues Met1-Glu512) (Sino Biological) (human) (UniProt P07333); assay: SPR (ProteOn XPR36); variant immobilized by amine coupling, soluble human c-FMS flowed at 12.5 to 200 nM
[13] = biological target: T1, soluble human αvβ3 integrin; assay: SPR (ProteOn XPR36); variant immobilized by amine coupling, soluble αvβ3 integrin flowed at 12.5 to 200 nM

Measured: binding

B1: M-CSFRGD variant 4.24 displayed on the yeast surface (designed binder, not shown: large carriers)
chain: EEVSEYCSHMIGSGHLQSLQRLIDSQMETSSQITFEFVDQEQLKDPVCYLKKAFLLVQDIMEDEPVRGDNINPNAIAIVQLQELSLRLKSCFTKDYEEHDKACVRTFYETPLQLLEKVKNVFNETKNLLDKDWNIFSKNCNNSFAECSSQGHERQSEGS
binds: [1] | [2] | [3] | [4] | [5] | [6] | [7]

B2: M-CSFRGD variant 4.24, purified soluble, non-glycosylated (designed binder)
chain: B1 chain
modifications: N-glycans removed with Endo HF (non-glycosylated)
notes: not shown: FLAG tag at the N-terminus of the cloning site (pPIC9K); 6xHis tag at the C-terminus of the cloning site
binds: [8] | [9] | integrin αvβ5 (human) [10] | integrin αvβ5 (human) [11] | [12] | [13]
